These are yes or no findings as the source states them, for the method shown. Some binding calls cover weakened binding; strength is not graded here.
Legend:
[1] = biological target: NusA-cynomolgus IP-10 fusion protein (cynomolgus); assay: ELISA (FIG. 7), NusA fusion proteins
[2] = biological target: NusA-cynomolgus IP-10 fusion protein (cynomolgus); assay: capture ELISA: NI-0801 coated, concentration range of NusA fusion protein, anti-NusA antibody

- binding [1]: binds
- binding [2]: binds
B1: NI-0801 (IgG1-formatted) (antibody, V domains shown)
VH: QVQLVESGGGVVQPGRSLRLSCAASGFTFSNSGIHWVRQAPGKGLEWVAVISYDGSNKYYADSVKGRFTISRDNSKNTLYLQMNSLRAEDTAVYYCARLRDNAEYTDYWGQGTLVTVSS
VL: NFMLTQPHSVSESPGKTVTISCTGSGGSIASNYVQWYQQRPGSSPTTVIYEDNQRPSGVPDRFSGSIDSSSNSASLTISGLKTEDEADYYCQSYDPLPVWVFGGGTKLTVLG

Source: patent US20100322941A1 (published 2010)
